Measurements reported in PMC11601914.
These are yes or no findings as the source states them, for the method shown. In cells and extracts the contact can be indirect. A yes stands for co-enrichment or nearness to the bait. Other partners may have been found. Tags and fused reporters may be left off the sequences shown.

T1: Myc-tagged EMC3 (UniProt Q99KI3)
T1 sequence: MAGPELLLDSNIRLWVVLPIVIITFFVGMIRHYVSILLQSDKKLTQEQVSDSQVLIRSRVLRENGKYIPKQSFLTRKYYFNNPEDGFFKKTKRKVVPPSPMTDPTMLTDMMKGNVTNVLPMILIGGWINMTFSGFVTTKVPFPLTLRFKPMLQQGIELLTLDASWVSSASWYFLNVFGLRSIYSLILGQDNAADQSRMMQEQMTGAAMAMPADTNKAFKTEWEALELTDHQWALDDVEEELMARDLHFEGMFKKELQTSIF


Target: T1, Myc-tagged EMC3
Assay: affinity purification with mass spectrometry; MLE-15 cells transfected with empty vector or Myc-EMC3; Myc antibody coimmunoprecipitates isolated from cell lysates with the μMACS c-myc Isolation Kit (Miltenyi Biotec) and analysed by mass spectrometry; five independent pairs; significance by apmsWAPP/TSPM, P < 0.05

binding | Molecule
binds | valosin containing protein (VCP) (from UniProt Q01853 1-806)
binds | EMC8 (protein, UniProt O70378 1-207) MPGVKLTTQAYCKMVLHGAKYPHCAVNGLLVAERQRPRKEHPPGAGSHTLFVDCIPLFHGTLALTPMLEVALTLIDSWCKDNSYVIAGYYQANERVKDASPNQVAEKVASRIAEGFGDAALIMVDNAKFTMDCAAPTIHVYEQHENRWRCRDPHHDYCEDWPEAQRISASLLDSRSYETLVDFDNHLDDIRSDWTNPEINKAVLHLC
